Measurements published in patent publication US20210300993A1 (AVALON GLOBOCARE, published 2021).
These are yes or no findings as the source states them, for the method shown. Some binding calls cover weakened binding; strength is not graded here. Sequences can lack the tags named with a protein.

Columns and labels:
IFNγ [1] = target: T1, IFNγ (UniProt P01579 24-166, limits assumed); assay: solution-based assay (MicroScale Thermophoresis), Fc-fusion receptor against its ligand
T1 sequence (looked up): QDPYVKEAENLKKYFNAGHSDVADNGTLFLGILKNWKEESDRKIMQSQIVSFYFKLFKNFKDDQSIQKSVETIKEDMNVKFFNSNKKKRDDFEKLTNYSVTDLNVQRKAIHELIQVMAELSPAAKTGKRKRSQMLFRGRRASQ

IFNγ [2] = target: T1, IFNγ; assay: MicroScale Thermophoresis (MST), fluorescently labelled receptor fusion titrated with IFNγ
From the text: FIG. 3A-3D. MST ligand binding measurements. The receptors were labeled with fluorescent dye. The ligands were purchased commercially from and dissolved in di water. (FIG. 3A) IL4Rα^QTY-Fc with IL4; (FIG. 3B) IL10Rα^QTY-Fc with IL10; (FIG. 3C) IFNγR1^QTY-Fc with IFNγ; (FIG. 3D) […].
MicroScale Thermophoresis (MST) is an optical method detecting changes in thermophoretic movement and TRIC of the protein-attached fluorophore upon ligand binding. Active labelled proteins contribute to the thermophoresis signal upon ligand binding. […] Herein ligand binding experiments were carried out with 5 nM NT647-labeled protein in 1× PBS, 10 mM DTT buffer with different concentration of arginine, against a gradient of respective ligands on a Monolith NT.115 pico instrument at 25° C. Synthesized receptors were labeled with Monolith NT™ 2nd generation protein labeling kit RED-NHS (NanoTemper Technologies) so as to obtain unique fluorescent signals. MST time traces were recorded and analyzed to obtain the highest possible signal-to-noise levels and amplitudes, >5 Fnorm units. The recorded fluorescence was plotted against the concentration of ligand, and curve fitting was performed using the Kd fit formula derived from the law of mass action. For clarity, binding graphs of each independent experiment were normalized to the fraction bound (0=unbound, 1=bound). […]

IFNγ [3] = target: T1, IFNγ; assay: MicroScale Thermophoresis

binding (IFNγ [1]): binds
binding (IFNγ [2]): binds
binding (IFNγ [3]): binds
B1: IFNγR1^QTY-Fc (HUMAN Interferon gamma receptor 1-Fc fusion) (Fc fusion)
chain: EMGTADLGPSSVPTPTNVTIESYNMNPIVYWEYQIMPQVPVFTVEVKNYGVKNSEWIDACINISHHYCNISDHVGDPSNSLWVRVKARVGQKESAYAKSEEFAVCRDGKIGPPKLDIRKEEKQIMIDIFHPSVFVNGDEQEVDYDPETTCYIRVYNVYVRMNGSEIQYKILTQKEDDCDEIQCQLAIPVSSLNSQYCVSAEGVLHVWGVTTEKSKEVCITIFNSSIKGSQWTPTTAAQQQYQTQSQTYTCFYIKKTETSQVAPAHHHHHHHHHHGSKLVDPRGPTIKPCPPCKCPAPNLLGGPSVFIFPPKIKDVLMISLSPIVTCVVVDVSEDDPDVQISWFVNNVEVHTAQTQTHREDYNSTLRVVSALPIQHQDWMSGKEFKCKVNNKDLPAPIERTISKPKGSVRAPQVYVLPPPEEEMTKKQVTLTCMVTDFMPEDIYVEWTNNGKTELNYKNTEPVLDSDGSYFMYSKLRVEKKNWVERNSYSCSVVHEGLHNHHTTKSFSRTPGK
modifications: labeled with NT647 RED-NHS fluorescent dye for MST
